{"source": "PubChem BioAssay AID602196 – INSERM, 2012", "purpose": "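Knock-downs that protect lung cancer cells from cisplatin or sensitise them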", "cells": "human A549 lung cancer cells", "reagent": "siRNA pair against human genes", "timing": "48 h transfection before cisplatin; time from cisplatin to read-out not stated", "treatment": "cisplatin at a dose killing half of control-siRNA cells; exact dose and duration not given", "measurement": "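Shift in cisplatin death relative to control siRNA, from -50 (all cells die) to +50 (no cells die); siRNAs harmful on their own scored 0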", "direction": "two-siRNA summed score (-2 to +2): higher = both siRNAs protect from cisplatin killing; -2 means both sensitise; mean protection from cisplatin (shift in death): higher = protection from cisplatin killing", "active means": "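siRNAs harmful alone (LDH or WST-1) get 0; others get +1 for less and -1 for more cisplatin killing; genes are active when the two siRNAs give the same sign, summing to ±2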", "meaning of the calls": "active = both siRNAs shift cisplatin killing the same way; inactive = no consistent shift, or siRNA harmful alone", "note": "In all, the deposit lists about 23,000 reagents; shown is a random part of them. 455 of them (2%) count as active. 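Active includes both protection and sensitisation; some change values fall well beyond the stated -50 to +50 range.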 Further read-outs or replicates are left out here. The record does not give: the amount of reagent."}
{"target":"FDFT1","two-siRNA summed score (-2 to +2)":0,"mean protection from cisplatin (shift in death) (%)":5.7,"activity call":"inactive"}
{"target":"BCL9L","two-siRNA summed score (-2 to +2)":1,"mean protection from cisplatin (shift in death) (%)":6.7,"activity call":"inactive"}
{"target":"LOC442563","two-siRNA summed score (-2 to +2)":0,"mean protection from cisplatin (shift in death) (%)":6.4,"activity call":"inactive"}
{"target":"HES4","two-siRNA summed score (-2 to +2)":0,"mean protection from cisplatin (shift in death) (%)":-6.6,"activity call":"inactive"}
{"target":"GSX2","two-siRNA summed score (-2 to +2)":0,"mean protection from cisplatin (shift in death) (%)":3.3,"activity call":"inactive"}
{"target":"GGCT","two-siRNA summed score (-2 to +2)":0,"mean protection from cisplatin (shift in death) (%)":10.4,"activity call":"inactive"}
{"target":"LOC389250","two-siRNA summed score (-2 to +2)":0,"mean protection from cisplatin (shift in death) (%)":10.9,"activity call":"inactive"}
{"target":"TAS2R8","two-siRNA summed score (-2 to +2)":0,"mean protection from cisplatin (shift in death) (%)":-0.8,"activity call":"inactive"}
{"target":"TMEM190","two-siRNA summed score (-2 to +2)":0,"mean protection from cisplatin (shift in death) (%)":-1.3,"activity call":"inactive"}
{"target":"LOC389358","two-siRNA summed score (-2 to +2)":0,"mean protection from cisplatin (shift in death) (%)":-5.5,"activity call":"inactive"}
{"target":"HNRNPK","two-siRNA summed score (-2 to +2)":0,"mean protection from cisplatin (shift in death) (%)":5.4,"activity call":"inactive"}
{"target":"LOC387910","two-siRNA summed score (-2 to +2)":0,"mean protection from cisplatin (shift in death) (%)":0.6,"activity call":"inactive"}
{"target":"LRRC32","two-siRNA summed score (-2 to +2)":0,"mean protection from cisplatin (shift in death) (%)":-5,"activity call":"inactive"}
{"target":"LOC390729","two-siRNA summed score (-2 to +2)":1,"mean protection from cisplatin (shift in death) (%)":22,"activity call":"inactive"}
{"target":"LOC400212","two-siRNA summed score (-2 to +2)":1,"mean protection from cisplatin (shift in death) (%)":9.4,"activity call":"inactive"}
{"target":"SNX15","two-siRNA summed score (-2 to +2)":1,"mean protection from cisplatin (shift in death) (%)":14.6,"activity call":"inactive"}
{"target":"LOC400553","two-siRNA summed score (-2 to +2)":0,"mean protection from cisplatin (shift in death) (%)":1.1,"activity call":"inactive"}
{"target":"ENKD1","two-siRNA summed score (-2 to +2)":0,"mean protection from cisplatin (shift in death) (%)":13.7,"activity call":"inactive"}
{"target":"QRFP","two-siRNA summed score (-2 to +2)":0,"mean protection from cisplatin (shift in death) (%)":6.1,"activity call":"inactive"}
{"target":"CNTFR","two-siRNA summed score (-2 to +2)":0,"mean protection from cisplatin (shift in death) (%)":25,"activity call":"inactive"}
{"target":"MSRB1","two-siRNA summed score (-2 to +2)":0,"mean protection from cisplatin (shift in death) (%)":-5.5,"activity call":"inactive"}
{"target":"ZNF138","two-siRNA summed score (-2 to +2)":1,"mean protection from cisplatin (shift in death) (%)":5.9,"activity call":"inactive"}
{"target":"LOC442726","two-siRNA summed score (-2 to +2)":0,"mean protection from cisplatin (shift in death) (%)":25.6,"activity call":"inactive"}
{"target":"CDC27","two-siRNA summed score (-2 to +2)":0,"mean protection from cisplatin (shift in death) (%)":7.8,"activity call":"inactive"}
{"target":"SIL1","two-siRNA summed score (-2 to +2)":0,"mean protection from cisplatin (shift in death) (%)":-2.7,"activity call":"inactive"}
{"target":"WWC1","two-siRNA summed score (-2 to +2)":0,"mean protection from cisplatin (shift in death) (%)":0.8,"activity call":"inactive"}
{"target":"CD244","two-siRNA summed score (-2 to +2)":-1,"mean protection from cisplatin (shift in death) (%)":-31.2,"activity call":"inactive"}
{"target":"LOC400681","two-siRNA summed score (-2 to +2)":0,"mean protection from cisplatin (shift in death) (%)":0.8,"activity call":"inactive"}
{"target":"COA7","two-siRNA summed score (-2 to +2)":0,"mean protection from cisplatin (shift in death) (%)":-1.3,"activity call":"inactive"}
{"target":"PTN","two-siRNA summed score (-2 to +2)":0,"mean protection from cisplatin (shift in death) (%)":-10.2,"activity call":"inactive"}
{"target":"ZNF347","two-siRNA summed score (-2 to +2)":0,"mean protection from cisplatin (shift in death) (%)":10.2,"activity call":"inactive"}

In a second layout: entries from further up
target	two-siRNA summed score (-2 to +2)	mean protection from cisplatin (shift in death) (%)	activity call
SNX15	1	14.6	inactive
LOC400553	0	1.1	inactive
